The assay has as its system P388 leukemia ip, CD2F1 mice, survival T/C. The assay can be described thus: NCI In Vivo Anticancer Drug Screen. Data for tumor model P388 Leukemia (intraperitoneal) in CD2F1 (CDF1) mice. The conditions noted are these: T/C endpoint: median survival time, higher T/C = longer survival.
[1] abbreviates: dose: 400.0 mg/kg/injection, schedule: Q04DX003 (ip), vehicle: Klucel (hydroxypropylcellulose) (HPC).
[2] abbreviates: dose: 400.0 mg/kg/injection, schedule: Q01DX009 (ip), vehicle: Klucel (hydroxypropylcellulose) (HPC).
Where [3] appears, read: dose: 100.0 mg/kg/injection, schedule: Q01DX009 (ip), vehicle: saline.
Where [4] appears, read: dose: 200.0 mg/kg/injection, schedule: Q01DX009 (ip), vehicle: saline.
The mark [5] stands for this setting: dose: 200.0 mg/kg/injection, schedule: Q01DX005 (ip), vehicle: saline.
The mark [6] stands for this setting: dose: 25.0 mg/kg/injection, schedule: Q01DX009 (ip), vehicle: water.

Each structure is given as a SMILES string. The list shows only some results of the screen, not a fair sample: it gathers tests that were run many times, whatever their T/C, doses with no T/C, and many T/C values between a quarter and a half above the control. Further doses and runs are listed elsewhere. T/C is the treated group as % of the vehicle group. Some entries give survivors of the animals treated and no T/C: the source holds a T/C of zero for them, seemingly a mark for toxic or unscored doses. Some doses without a T/C left all or most animals alive at the check, yet need not have been tolerated: survival well below the control is almost never listed, so the zero probably covers shortened survival too. Survivors were counted at the toxicity check, usually on the fifth day, unless a day is given; later deaths do not show. Schedules are NCI's codes, read here as Q, the interval in days (D) or hours (H), X, the number of doses. Some doses were run more than once; the values are given in rising order. Where survival is the endpoint, this PubChem deposit counts one and a half times the control or more as active, and values a quarter to a half above the control carry no call in these data; other NCI protocols may use other cut-offs. Some T/C values carry the count of animals alive at the toxicity check (mostly the fifth day); without a count, all were alive then.

For the molecule `CC(C)(C)C1CCC=CC(=O)C1` (stereo unspecified), under setting [1], the survivor count is reported as 2 of 6.

Regarding `CCOC(=O)/C(=C\Nc1cccc(OCc2ccccc2)c1)NC(=O)c1ccccc1`, the survivor count is 6 of 6 (dose: 100.0 mg/kg/injection, schedule: Q01DX009 (ip), vehicle: Klucel (hydroxypropylcellulose) (HPC)) and 3 of 6 under setting [2].

Regarding `O=[N+]([O-])c1c(O)c(CNCCCO)cc(CNCCCO)c1O`, the T/C runs as follows: (dose: 25.0 mg/kg/injection, schedule: Q01DX009 (ip), vehicle: saline) 128 % of control; (dose: 50.0 mg/kg/injection, schedule: Q01DX009 (ip), vehicle: saline) 129 % of control; under setting [3], 134 and 138 % of control. Moreover, the survivor count was 2 of 6 under setting [4] and 0 of 6 (dose: 400.0 mg/kg/injection, schedule: Q01DX009 (ip), vehicle: saline).

As for `Cc1c2ccncc2c(O)c2c3ccccc3n(C)c12`, the survivor count by setting is: (dose: 100.0 mg/kg/injection, schedule: Q01DX005 (ip), vehicle: Klucel (hydroxypropylcellulose) (HPC)) 3 of 6; (dose: 200.0 mg/kg/injection, schedule: Q01DX005 (ip), vehicle: Klucel (hydroxypropylcellulose) (HPC)) 0 of 6.

As to `C=CC[P+](CC[P+](CC=C)(c1ccccc1)c1ccccc1)(c1ccccc1)c1ccccc1`, the survivor count is, setting by setting: (dose: 25.0 mg/kg/injection, schedule: Q04DX002 (ip), vehicle: saline) 0 of 6; (dose: 100.0 mg/kg/injection, schedule: Q04DX002 (ip), vehicle: saline with Tween-80) 0 of 6; (dose: 200.0 mg/kg/injection, schedule: Q04DX002 (ip), vehicle: saline with Tween-80) 0 of 6; (dose: 400.0 mg/kg/injection, schedule: Q04DX002 (ip), vehicle: saline with Tween-80) 0 of 6.

In the case of `CC(=O)N1CCc2ccccc2C1C1NCCc2ccccc21` (stereo unspecified), the survivor count under setting [1] is given as 0 of 6.

`CC1OC(Nc2ncnc3nc[nH]c23)C(O)C(O)C1NC(=O)CNC(=O)CCCCCCCCC/C=C\C(C)(C)C` (stereo unspecified): the T/C by setting is: (dose: 1.0 mg/kg/injection, schedule: Q01DX009 (ip), vehicle: distilled water + Tween-80) 138 and 148 % of control; (dose: 2.0 mg/kg/injection, schedule: Q01DX009 (ip), vehicle: distilled water + Tween-80) 137 and 148 % of control; (dose: 4.0 mg/kg/injection, schedule: Q01DX009 (ip), vehicle: distilled water + Tween-80) 141 % of control. The survivor count (dose: 8.0 mg/kg/injection, schedule: Q01DX009 (ip), vehicle: distilled water + Tween-80) is 5 of 6 and 6 of 6.

For `COC(=O)/C(C#N)=C(\C)CCC=C(C)C`, the survivor count runs as follows: (dose: 100.0 mg/kg/injection, schedule: Q04DX003 (ip), vehicle: saline with Tween-80) 3 of 6; (dose: 200.0 mg/kg/injection, schedule: Q04DX003 (ip), vehicle: saline with Tween-80) 0 of 6; (dose: 400.0 mg/kg/injection, schedule: Q04DX003 (ip), vehicle: saline with Tween-80) 0 of 6.

As for `CCCCCCCCCC[N+]1([O-])CCCCC1`, the survivor count reads like this: under setting [3], 4 of 6; under setting [4], 0 of 6.

Regarding `NS(=O)(=O)c1ccc(Nc2c3ccccc3nc3ccccc23)cc1`, the survivor count is reported as 6 of 6 (dose: 50.0 mg/kg/injection, schedule: Q04DX003 (ip), vehicle: Klucel (hydroxypropylcellulose) (HPC)); 6 of 6 (dose: 59.0 mg/kg/injection, schedule: Q04DX003 (ip), vehicle: Klucel (hydroxypropylcellulose) (HPC)); 6 of 6 (dose: 200.0 mg/kg/injection, schedule: Q04DX003 (ip), vehicle: Klucel (hydroxypropylcellulose) (HPC)).

As to `CCN(CC)CCOCCCNc1ccnc2cc(Cl)ccc12`, under setting [5], the survivor count is listed as 0 of 6.

Take `Nc1nc(-c2ccccc2N=NN2CCCCC2)nc2ccccc12`: the T/C is, setting by setting: (dose: 200.0 mg/kg/injection, schedule: Q01DX009 (ip), vehicle: Klucel (hydroxypropylcellulose) (HPC)) 127 and 137 % of control; under setting [2], 126 % of control [5 of 6 alive].

Regarding `O=C(C[N+](=O)[O-])OCc1ccccc1`, the survivor count (dose: 200.0 mg/kg/injection, schedule: Q01DX009 (ip), vehicle: other) is given as 3 of 6.

For `CCCCOCN(CCCc1ccccc1)COCCCC`, the T/C (dose: 100.0 mg/kg/injection, schedule: Q01DX009 (ip), vehicle: saline with Tween-80) was 127 % of control and the T/C (dose: 200.0 mg/kg/injection, schedule: Q01DX009 (ip), vehicle: saline with Tween-80) is 139 % of control.

With `CCN(CC)CCSCCNc1cc(OC)cc2cccnc12`, the survivor count is recorded as 0 of 5 (dose: 100.0 mg/kg/injection, schedule: Q01DX005 (ip), vehicle: saline) and 0 of 5 under setting [5].

As for `[O-][n+]1c2ccccc2[n+]([O-])c2c(O)cccc21`, the T/C (dose: 12.5 mg/kg/injection, schedule: Q01DX009 (ip), vehicle: distilled water + Tween-80) is 127 % of control. Further, the survivor count is on record as 5 of 6 (dose: 50.0 mg/kg/injection, schedule: Q01DX009 (ip), vehicle: distilled water + Tween-80) and 6 of 6 (dose: 100.0 mg/kg/injection, schedule: Q01DX009 (ip), vehicle: distilled water + Tween-80).

With `O=c1c([N+](=O)[O-])c[nH]c2ccccc12`, the survivor count (dose: 400.0 mg/kg/injection, schedule: Q01DX009 (ip), vehicle: distilled water + Tween-80) is given as 3 of 6.

For `ClCCCCOCBr`, the survivor count (dose: 120.0 mg/kg/injection, schedule: Q01DX005 (ip), vehicle: saline) is listed as 6 of 6.

`c1ccc2c3c(ccc2c1)CC1CCCN1C3` (stereo unspecified): under setting [1], the survivor count was 3 of 6.

Consider `COc1ccc(-c2csc(=[N+]3CCCCC3)s2)cc1`, for which the T/C is, setting by setting: (dose: 12.5 mg/kg/injection, schedule: Q01DX009 (ip), vehicle: water) 126 and 128 % of control; under setting [6], 146 % of control. Further, the survivor count under setting [6] is 6 of 6; the survivor count (dose: 50.0 mg/kg/injection, schedule: Q01DX009 (ip), vehicle: water) was 0 of 6 and 1 of 6; the survivor count (dose: 100.0 mg/kg/injection, schedule: Q01DX009 (ip), vehicle: water) is given as 0 of 6.

As for `Cc1cc(NCCCNCCCNc2cc(C)nc3cc(N)ccc23)c2ccc(N)cc2n1`, the T/C (dose: 6.25 mg/kg/injection, schedule: Q01DX009 (ip), vehicle: other) is 138 % of control. Also, the survivor count reads like this: (dose: 25.0 mg/kg/injection, schedule: Q01DX009 (ip), vehicle: other) 0 of 6; (dose: 50.0 mg/kg/injection, schedule: Q01DX009 (ip), vehicle: other) 0 of 6; (dose: 100.0 mg/kg/injection, schedule: Q01DX009 (ip), vehicle: other) 0 of 6.

Take `O=C(c1cccnc1)C(CCc1ccccn1)c1ccccn1` (stereo unspecified): where the note is “dose: 400.0 mg/kg/injection, schedule: Q04DX003 (ip), vehicle: saline”, the survivor count is recorded as 4 of 6.

The record behind these values is PubChem BioAssay AID330 (DTP/NCI, 2004).
